The campaign covered roughly 320,000 compounds. About 620 (0.19%) were called active. This list was built around the results that the source calls inconclusive (neither active nor inactive); the mix of calls is not that of the screen. Cut-off read from the data, not from the text of the source: active = activation above about 80%; inconclusive = between about 30% and that limit; inactive = weaker than that.
Biological target: Transient receptor potential cation channel subfamily V member 1 (Homo sapiens) (UniProt Q8NER1)
Assay: HTS Assay for Compounds that Act as Agonists of the Vanilloid Receptor 1; note: 0% is about no effect
Details: TRPV1-expressing cells, Fluo-8 calcium influx, agonist mode; at 8.33 µM, active compounds read high
Summary of the method: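 Cells expressing TRPV1 were dye-loaded with Fluo-8 and read kinetically: 10 s baseline, 3 min after compound (agonist portion), then 2 min after EC20 capsaicin (allosteric enhancer portion). Calcium-bound dye fluorescence at 480/520 nm.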

By UniProt entry, the sequences of proteins in these tests, tags left out.
UniProt Q8NER1, whole entry, looked up: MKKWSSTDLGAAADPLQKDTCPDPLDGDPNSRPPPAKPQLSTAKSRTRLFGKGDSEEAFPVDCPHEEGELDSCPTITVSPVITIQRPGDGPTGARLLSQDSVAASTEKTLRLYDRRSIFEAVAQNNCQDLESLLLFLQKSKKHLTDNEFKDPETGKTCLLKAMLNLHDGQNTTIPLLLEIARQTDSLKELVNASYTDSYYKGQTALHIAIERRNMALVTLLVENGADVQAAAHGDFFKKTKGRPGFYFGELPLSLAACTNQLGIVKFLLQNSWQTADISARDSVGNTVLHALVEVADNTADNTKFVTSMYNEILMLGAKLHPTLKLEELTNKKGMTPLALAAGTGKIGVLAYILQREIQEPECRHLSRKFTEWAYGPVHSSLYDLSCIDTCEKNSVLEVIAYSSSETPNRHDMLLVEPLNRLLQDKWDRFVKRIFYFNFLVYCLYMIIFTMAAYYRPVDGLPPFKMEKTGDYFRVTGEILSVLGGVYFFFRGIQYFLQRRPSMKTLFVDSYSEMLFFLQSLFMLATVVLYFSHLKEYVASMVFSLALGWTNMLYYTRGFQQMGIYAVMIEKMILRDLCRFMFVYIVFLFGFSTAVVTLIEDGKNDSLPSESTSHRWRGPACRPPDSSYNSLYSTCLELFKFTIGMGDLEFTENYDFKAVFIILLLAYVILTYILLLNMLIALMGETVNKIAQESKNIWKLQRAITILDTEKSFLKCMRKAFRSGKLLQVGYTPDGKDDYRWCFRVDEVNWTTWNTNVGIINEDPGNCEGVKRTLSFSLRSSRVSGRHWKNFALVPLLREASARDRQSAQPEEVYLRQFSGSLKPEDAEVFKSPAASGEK

| SMILES | activation |
| --- | --- |
| CCCC(=O)Nc1nc2c(C)c(Cl)ccc2s1 | inconclusive: 47% |
| CC(C)(C)C(=O)c1cn(CC(=O)NCc2ccc3c(c2)OCO3)c2ccccc12 | inconclusive: 47.6% |
| CC(C)c1ccc(N(CC(=O)NCc2cccnc2)S(=O)(=O)c2ccccc2)cc1 | inconclusive: 34.5% |
| CC(C)(C)c1csc(NC(=O)c2cccs2)n1 | inconclusive: 46.4% |
| CCCCC(=O)Nc1nc2c(OC)cc([N+](=O)[O-])cc2s1 | inactive: 4.2% |
| Cc1cnn(-c2cc(Oc3ccccc3)ncn2)c1 | inactive: 7.27% |
| O=C(C1CN(C(=O)c2cc3cc(Cl)ccc3o2)c2ccccc2O1)N1CCCCC1 (configuration not stated) | inconclusive: 33.3% |
| O=C(Nc1cccnc1)c1ccccc1-c1nc(-c2ccccc2F)no1 | inconclusive: 52.9% |
| O=C(CC12CC3CC(CC(C3)C1)C2)NC(=S)Nc1ccc(CN2CCOCC2)cc1 | inactive: 4.99% |
| O=C(COc1ccc(F)cc1)Nc1nc2c(s1)CCCC2 | inconclusive: 43.1% |
| CCCCCCCCCC(=O)N/N=C(\C)c1cccnc1 | inconclusive: 30.7% |
| CSc1ccccc1OCc1cc(C(=O)NCc2csc(C(C)C)n2)no1 | inconclusive: 39.5% |
| Cc1ccc(CSCc2nc3ccccc3[nH]2)cc1 | inconclusive: 80% |
| O=C(Nc1ccc(-n2cnnn2)cc1)C1CCCCC1 | inconclusive: 60.2% |
| O=C(O)c1ccc(/C=N/NC(=O)c2cc(-c3cccs3)nc3ccccc23)cc1 | inactive: 21.5% |
| O=C(Nc1cccc(S(=O)(=O)N2CCOCC2)c1)C1COc2ccccc2O1 (configuration not stated) | inconclusive: 48.4% |
| CC1CCN(C(=O)CSCC(=O)O)CC1 | inactive: -2.08% |
| Cc1cc(C)cc(OCCn2c(C3CC(=O)N(c4ccccc4Cl)C3)nc3ccccc32)c1 (configuration not stated) | inactive: 14.8% |
| COc1ccc(C2CC(=O)N(C)c3ccccc3S2)cc1 (configuration not stated) | inconclusive: 39.8% |
| Cc1cc(C)c(C)c(S(=O)(=O)N2CCC(C(=O)Nc3ccncc3)CC2)c1C | inconclusive: 36.2% |
| O=C(Nc1ccc(F)cc1)N1CCN2C(=O)c3ccccc3C12c1ccccc1 (configuration not stated) | inconclusive: 41.4% |
| O=C(NC(=S)NCc1ccccc1)c1ccccc1[N+](=O)[O-] | inactive: -0.205% |
| c1ccc(CC(Nc2ccccn2)c2ccccc2)cc1 (configuration not stated) | inconclusive: 33.9% |

| SMILES | activation |
| --- | --- |
| Cc1ccc(Nc2nc(N)nc(CSC(=S)N3CCOCC3)n2)c(C)c1 | inconclusive: 40.4% |
| CN(C)c1cccc(/C=C(\C#N)c2ccccc2)c1 | inconclusive: 32.5% |
| COc1ccc(CN(C)C(=O)C(Cc2ccccc2)NC(=O)c2ccccc2)cc1F (configuration not stated) | inconclusive: 37.7% |
| CN(C)/N=C/c1c(O)ccc2ccccc12 | inconclusive: 35.5% |
| Cn1cc(CNC(=O)c2cc(-c3ccccc3)nc3ccc(Br)cc23)cn1 | inconclusive: 68.8% |
| O=C(Nc1ccc(F)cc1)N(Cc1ccco1)Cc1cc2cc3c(cc2[nH]c1=O)OCO3 | inactive: 1.15% |
| COc1ccc(C)cc1NC(=O)CN1C(=O)COc2ccc(S(=O)(=O)N3CCC(C)CC3)cc21 | inconclusive: 65.1% |
| O=C(N/N=C/c1cccs1)c1ccc2ccccc2c1 | inconclusive: 64.6% |
| NS(=O)(=O)c1cccc(NC(=O)CSc2ncnc3ccccc23)c1 | inactive: 0.901% |
| Clc1cc2nc(-c3cccnc3Cl)[nH]c2cc1Cl | inconclusive: 33.6% |
| COc1ccc(N(CC(=O)Nc2c(C)n(C)n(-c3ccccc3)c2=O)S(=O)(=O)c2ccc(C)cc2)cc1 | inactive: -0.654% |
| CCOC(=O)c1[nH]c2cc(OC)c(OC)cc2c1NC(=O)CCN1CCSCC1 | inconclusive: 36% |
| O=C(N/N=C/c1ccc(OCc2ccccc2)cc1)c1ccc(O)cc1 | inconclusive: 49.3% |
| CS(=O)(=O)Nc1ccc(C(=O)Nc2ccc3ccccc3c2)cc1 | inconclusive: 37.6% |
| C[C@H]1CN=C(Nc2ccccc2)N1CCCC1CCCCC1 | inactive: -2.29% |
| COc1ccccc1CNC(=O)c1ccc2c(c1)OCO2 | inconclusive: 49% |
| Cc1ccc(-c2nn(-c3ccccc3)cc2CN(Cc2ccccc2)C(=O)c2ccco2)o1 | inconclusive: 48.9% |
| CC(C)C1OC(c2cccc(NC(=O)c3cccs3)c2)OCC1(C)C (configuration not stated) | inconclusive: 68.9% |
| COc1ccc([C@H]2CC(=O)C=C(c3cccc4c3Oc3ccccc3S4)C2)cc1OC | inconclusive: 33.8% |
| O=C(CSCc1c(Cl)cccc1Cl)Nc1ccc2c(c1)OCCO2 | inconclusive: 35.6% |
| COCc1cc(C)[nH]c(=O)c1C#N | inactive: -2.43% |
| N#CC1=C(N)N2C(=C(C#N)C1c1ccccc1)Sc1ccccc12 (configuration not stated) | inactive: 0.427% |
| COc1ccc(-c2cc(C(=O)NCC3CCCO3)c3cc(C(C)C)ccc3n2)cc1 (configuration not stated) | inconclusive: 61.5% |

| SMILES | activation |
| --- | --- |
| CCc1ccc(N2CC(C(=O)NCCC3=CCCCC3)CC2=O)cc1 (configuration not stated) | inconclusive: 35.2% |
| COc1cccc(NC(=O)CN2C(=O)COc3ccc(S(=O)(=O)N4CCC(C)CC4)cc32)c1 | inconclusive: 74.2% |
| CCN(CC)C(=O)CSc1nc2sc3c(c2c(=O)n1-c1ccc(C)cc1)CC(C)(C)SC3 | inconclusive: 66.3% |
| Cc1ccccc1NC(=O)NC(C)(C)CC(C)(C)C | inconclusive: 54% |
| CCOC(=O)c1ccc(NC(=O)N2CCN(Cc3ccccc3)CC2)cc1 | inconclusive: 66.4% |
| O=C(Nc1ccc(Sc2ccc(Br)cc2)cc1)c1ccco1 | inconclusive: 68.6% |
| O=C(CCl)N(c1ccccc1)C1CCS(=O)(=O)C1 (configuration not stated) | inactive: 0.403% |
| CC(C(=O)Nc1ccc(Cl)cc1)N(C)Cc1cccs1 (configuration not stated) | inconclusive: 46.9% |
| Cc1c(C(=O)N2CCOCC2)sc(NC(=O)c2ccc3c(c2)OCO3)c1C#N | inactive: -1.89% |
| O=C(COc1ccc(Br)cc1)Nc1ccncc1 | inconclusive: 71.6% |
| C=C[C@@H]1c2ccccc2N(S(=O)(=O)c2ccc(C)cc2)[C@H](c2ccccc2C(F)(F)F)C1(C#N)C#N | inactive: 0.93% |
| CN(C)S(=O)(=O)c1ccc(NC(=O)COC(=O)C2COc3ccccc3O2)cc1 (configuration not stated) | inactive: 2.37% |
| Cc1ccoc1C(=O)Nc1cccc2ccccc12 | inconclusive: 34.6% |
| O=C(CSc1ccc(-c2ccccn2)nn1)NCc1ccc(F)cc1 | inactive: -1.39% |
| Cc1cccc(CSC2=NN3CCCC(=O)N=C3S2)c1 | inconclusive: 35.6% |
| Cc1ccc(C)c(N2CCN(C(=O)c3cc(S(=O)(=O)N4CCOCC4)ccc3F)CC2)c1 | inconclusive: 47.9% |
| Cc1c(C(=O)N2CCC2)oc2ccc(Br)cc12 | inconclusive: 40.4% |
| NC(=O)CC(NC(=O)Cc1ccc(Br)cc1)c1ccc(NCC2CC2)c([N+](=O)[O-])c1 (configuration not stated) | inactive: 0.752% |
| C=CC[n+]1c(-c2ccc(OCC)cc2)csc1NNC(=O)Nc1ccccc1 | inactive: 8.92% |
| CC1(c2cccc(Br)c2)NC(=O)N(CC(=O)Nc2ccc(F)cc2)C1=O (configuration not stated) | inconclusive: 37.7% |
| Cc1ccc(NC(=O)CNCc2cccs2)c(Br)c1 | inconclusive: 31.1% |
| CC(C)(C)c1csc(NNC(=O)c2ccc(Br)cc2)n1 | active: 80.4% |
| Cc1cc(NCc2ccccn2)nc2ccccc12 | inactive: 1.56% |

Individual results from the list.
In activation, O=C(COc1ccc(Br)cc1)Nc1ccncc1 is listed with inconclusive: 71.6%
In activation, COc1cccc(NC(=O)CN2C(=O)COc3ccc(S(=O)(=O)N4CCC(C)CC4)cc32)c1 is listed with inconclusive: 74.2%
In activation, C=CC[n+]1c(-c2ccc(OCC)cc2)csc1NNC(=O)Nc1ccccc1 is listed with inactive: 8.92%
In activation, CC1(c2cccc(Br)c2)NC(=O)N(CC(=O)Nc2ccc(F)cc2)C1=O (configuration not stated) is listed with inconclusive: 37.7%
In activation, CCN(CC)C(=O)CSc1nc2sc3c(c2c(=O)n1-c1ccc(C)cc1)CC(C)(C)SC3 is listed with inconclusive: 66.3%
In activation, CCc1ccc(N2CC(C(=O)NCCC3=CCCCC3)CC2=O)cc1 (configuration not stated) is listed with inconclusive: 35.2%

The list continues:

| SMILES | activation |
| --- | --- |
| O=C(Cn1nnc(-c2ccc(Cl)cc2)n1)NCC1CCCCC1 | inconclusive: 43.6% |
| O=C(COC(=O)c1cncc(Br)c1)NCc1ccc(F)cc1 | inconclusive: 43.2% |
| CCCCOc1ccc(C(=O)NCCc2cccs2)cc1 | inconclusive: 35.6% |
| Cc1cc(C)cc(NC(=O)Cn2nnc(C(=O)NCc3ccco3)c2N)c1 | inconclusive: 34% |
| CCCCCOc1ccc2oc(=O)c3c(c2c1)CCCN3C(=O)CN1CCCC(C(=O)OCC)C1 (configuration not stated) | inconclusive: 42.3% |
| O=C(COc1ccc(Cl)cc1)Nc1ccc2[nH]ncc2c1 | inconclusive: 69.2% |
| CCSc1nnc(NC(=O)c2ccc(C)cc2)s1 | inconclusive: 44.8% |
| O=C(NC(=S)Nc1ccccc1Cl)c1ccco1 | inactive: 1.97% |
| COc1cc(-c2noc(C)c2-c2ccc(N(C)C)nc2)cc(OC)c1OC | inconclusive: 43% |
| COc1ccccc1N(CC(=O)N(CC(C)C)CC(C)C)S(=O)(=O)c1cccs1 | inconclusive: 33.2% |
| O=C(Nc1ccc(N2CCOCC2)cc1)c1ccc(Cl)c(S(=O)(=O)N2CCCC2)c1 | inconclusive: 33.6% |
| O=C1C(Cc2ccccc2)Nc2ncnc(N3CCCCC3)c2N1Cc1ccc(Cl)cc1 (configuration not stated) | inconclusive: 51.4% |
| CSc1cccc(NC(=O)C(C)Sc2ccc(C)cc2)c1 (configuration not stated) | inconclusive: 65.7% |
| CCCCNC(=S)N/N=C/c1ccc(C)s1 | inconclusive: 32.6% |
| C=CCn1c(SCC(=O)Nc2ccc(N3CCOCC3)cc2)nc2ccccc2c1=O | inconclusive: 35.2% |
| O=C(O)C1Cc2c([nH]c3ccccc23)C(c2ccc3c(c2)OCO3)N1 (configuration not stated) | inconclusive: 44.9% |
| CCOc1ccc2nc(NC(=O)CSC3=NCCS3)sc2c1 | inactive: 1.01% |
| O=C(Nc1nccs1)c1ccc(N2C(=O)C3CCCCC3C2=O)cc1 (configuration not stated) | inconclusive: 30.7% |
| COc1ccccc1OC(C)C(=O)Nc1ccc2c(c1)OCCO2 (configuration not stated) | inconclusive: 31.9% |
| COc1cccc(/C=C/C(=O)Nc2ccc(OC)nc2)c1 | inconclusive: 75.1% |
| COc1cccc(NC(=S)NCc2ccncc2)c1 | inconclusive: 34% |
| Cc1ccc(/C=N/NC(=O)c2ccc3ccccc3c2)s1 | inconclusive: 42.6% |
| O=C(CCCC(=O)N1CCN(c2ccccc2F)CC1)c1ccccc1 | inconclusive: 51% |

Source: PubChem BioAssay AID540275 (National Center for Advancing Translational Sciences (NCATS), 2011)
